Data taken from patent publication US11433090B2, “mTOR-inhibitor-containing medicine for treating or preventing ophthalmic symptoms, disorders, or diseases, and application thereof” (The Doshisha, priority 2017, dated 2022).
At least one structure is not confirmed: it was looked up by name or label, or the drawing left a doubt.

Assays:
Assay type in all cases: cell-based, human
[1] = tested on: Akt; assay: Western blot of Akt phosphorylation after TGF-β2 stimulation in iFECD; conditions: rapamycin + TGF-β2 10 ng/ml 24 h, FIG. 3
[2] = tested on: iFECD; assay: Cell damage induced by TGF-β2 in iFECD, phase contrast microscopy; conditions: rapamycin pretreatment 24 h, then TGF-β2 10 ng/ml + rapamycin 24 h, FIG. 1
Procedure: (§1) The medium was removed from a culture dish in which iFECDs were being cultured, and the cells were supplemented with 1×PBS (−) that was preheated to 37° C., and were washed. This was repeated twice. The cells were supplemented again with 1×PBS (−) and incubated for 3 minutes at 37° C. (5% CO2). After removing the PBS (−), the cells were supplemented with 0.05% Trypsin-EDTA (Nacalai Tesque, 32778-34) and incubated for 5 minutes at 37° C. (5% CO2). The cells were then suspended in a medium, and collected by centrifugation at 1500 rpm for 3 minutes. DMEM (Nacalai Tesque, 08456-36)+10% FBS (Biowest, S1820-500)+1% P/S (Nacalai Tesque, 26252-94) was used as the medium.
(§2) iFECDs were seeded on a 12-well plate at a ratio of 1×10^5 cells per well and cultured for 24 hours at 37° C. (5% CO2) (DMEM+10% FBS+1% P/S was used as the medium). After 24 hours, the medium was removed. Rapamycin was added to culture the cells for 24 hours. (DMEM+2% FBS+1% P/S was used as the medium). After 24 hours, the medium was removed. A medium containing 10 ng/ml of Recombinant Human TGF-β2 (Wako, 200-19911) and rapamycin was added to culture the cells for 24 hours. (DMEM+2% FBS+1% P/S was used as the medium). After 24 hours, the cell morphology and apoptosis were observed under a phase contrast microscope.
iFECDs were seeded on a 12-well plate at a ratio of 3×10^4 cells per well and cultured for 24 hours at 37° C. […]

[3] = tested on: Smad2/3; assay: Western blot of Smad2/3 phosphorylation induced by TGF-β2 in iFECD; conditions: rapamycin + TGF-β2 10 ng/ml 24 h, FIG. 4
[4] = tested on: cleaved caspase 3; assay: Western blot of cleaved caspase 3 after TGF-β2 stimulation in iFECD; conditions: rapamycin + TGF-β2 10 ng/ml 24 h, FIG. 2
Procedure: as §1
as §2, with “(DMEM+2% FBS+1% P/S was used as the medium). After 24 hours, the cell morphology and apoptosis were observed under a phase contrast microscope.” left out
(§3) 8 μg of the extracted protein was separated by SDS-PAGE and transferred onto a nitrocellulose membrane. […] The detected band strength was analyzed with a lumino image analyzer LAS-4000 mini (Fuji Film) and ImageQuant™ software (GE Healthcare). […]

[5] = tested on: S6K; assay: Western blot of S6K phosphorylation after TGF-β2 stimulation in iFECD; conditions: rapamycin + TGF-β2 10 ng/ml 24 h, FIG. 3
Procedure: as §1
as §2, with “7×10^4” for “1×10^5”, “(DMEM+2% FBS+1% P/S was used as the medium). After 24 hours, the cell morphology and apoptosis were observed under a phase contrast microscope.” left out
as §3

[6] = tested on: caspase 3/7; assay: Caspase-Glo 3/7 Assay in iFECD stimulated with TGF-β2; conditions: TGF-β2 10 ng/ml, Dunnett-t test, n=5
Procedure: as §1
Corneal endothelial cells from immortalized FECD patients (lot: iFECD3-5) were seeded on a 96-well plate at a ratio of 4×10^3 cells per well and cultured for 24 hours at 37° C. (5% CO2) (medium: DMEM+10% FBS+1% P/S). After 24 hours, the medium was removed. Each mTOR inhibitor was added to culture the cells for 24 hours (medium: DMEM+2% FBS+1% P/S). After 24 hours, the medium was removed. Media containing 10 ng/ml of Recombinant Human TGF-β2 (Wako, 200-19911) and each mTOR inhibitor were added to culture the cells for 24 hours (medium: DMEM+2% FBS+1% P/S). After 24 hours, the cell morphology and apoptosis were observed under a phase difference microscope.
After observation, measurement of caspase 3/7 activity by Caspase-Glo® 3/7 Assay was carried out with the following procedure.
The medium was discarded to achieve 50 μl per well. 50 μl/well of Caspase Glo® 3/7 Assay Reagent (mixture of Caspase-Glo® 3/7 Assay Buffer and Caspase-Glo® 3/7 Assay Substrate) (Promega, G8091) solution was added so as to achieve 1:1 with the medium. The operations hereafter were carried out while being shaded. A shaker was used to mix the content well for two minutes at about 120 minutes^−1 to then be left for 40 minutes at room temperature. After being left, 80 μl was moved to Assay plate (Corning, 3912, Assay plate 96 well, white polystyrene) and […] was measured using GloMax-Multi Detection System (Promega, E7051).
The following mTOR inhibitors were used in this Example. • Rapamycin (Wako, #53123-88-9) • Everolimus (Cayman Chemical, #11597) • Temsirolimus (Tocris Bioscience, #5264) • PI-103 (Cayman Chemical, #10009209) • CC-223 (Cayman Chemical, #19917) • INK128 (Cayman Chemical, #11811) • AZD8055 (Cayman Chemical, #16978) • KU 0063794 (Tocris Bioscience, #3725)

[7] = tested on: fibronectin; assay: Western blot of fibronectin production induced by TGF-β2 in iFECD; conditions: rapamycin + TGF-β2 10 ng/ml 24 h, FIG. 5, n=3
Procedure: as §1
as §2, with “6-well” for “12-well”, “2×10^5” for “1×10^5”, “(DMEM+2% FBS+1% P/S was used as the medium). After 24 hours, the cell morphology and apoptosis were observed under a phase contrast microscope.” left out
5 μg of the extracted protein was separated by SDS-PAGE and transferred onto a nitrocellulose membrane. […] The detected band strength was analyzed with a lumino image analyzer LAS-4000 mini (Fuji Film) and ImageQuant™ software (GE Healthcare). […]

With `CO[C@H]1C[C@@H]2CC[C@@H](C)[C@@](O)(O2)C(=O)C(=O)N2CCCC[C@H]2C(=O)O[C@H]([C@H](C)C[C@@H]2CC[C@@H](O)[C@H](OC)C2)CC(=O)[C@H](C)/C=C(\C)[C@@H](O)[C@@H](OC)C(=O)[C@H](C)C[C@H](C)/C=C/C=C/C=C/1C` [rapamycin, Rapamycin] the “phosphorylation of Akt (upstream of mTOR), western blot” value [1] was “phosphorylated”, the “damage to corneal endothelial cells induced by Recombinant Human TGF-β2” value [2] was “suppressed” and the “phosphorylation activity of Smad2/3 induced by Recombinant Human TGF-β2, western blot” value [3] was “not to be suppressed”. For the same compound, the “activated form of cleaved caspase 3 (about 17 kDa), western blot” value [4] was “hardly observed”, the “phosphorylation activity of S6K, western blot” value [5] was “suppressed” and the “activity of caspase 3/7 compared to control” value (shortened to “activity … compared to control”) ([6]; 0.00001 nM) was “significant difference was not found”. For the same compound, the “activity … compared to control” value ([6]; 0.0001 nM) was “significant difference was not found”, the “activity … compared to control” value ([6]; 0.001 nM) was “significant difference was not found” and the “activity … compared to control” value ([6]; 0.01 nM) was “significant difference was not found”. The “activity … compared to control” value ([6]; 0.1 nM) was “significantly suppressed”, the “activity … compared to control” value ([6]; 1 nM) was “significantly suppressed” and the “activity … compared to control” value ([6]; 10 nM) was “significantly suppressed”. For the same compound, the “activity … compared to control” value ([6]; 100 nM) was “significantly suppressed” and the “production of fibronectin induced by TGF-β2, western blot” value [7] was “hardly observed”.
